PMC7819943, “Rice protein-binding microarrays: a tool to detect cis-acting elements near promoter regions in rice”
The list shows a part of the results.

The sequences below were run against T1, OsSMF1 (Oryza sativa, UniProt Q6ZLB0 1-436) (assay: protein-binding microarray (RPBM); PBS, 2% BSA, 51.3 ng/ul salmon testes DNA, 50 uM zinc acetate, 200 nM TF, 25 C, 1 h; high values mean tight binding). Settings: protein: recombinant; tags: N-terminal polyhistidine and DsRed monomer fusion (pET32a); chain copies: 2; label: CyDye5-dUTP incorporated in the synthesized complementary strand; 3' TTTTT single-stranded linker to array surface; dsDNA, one strand shown.
T1 sequence: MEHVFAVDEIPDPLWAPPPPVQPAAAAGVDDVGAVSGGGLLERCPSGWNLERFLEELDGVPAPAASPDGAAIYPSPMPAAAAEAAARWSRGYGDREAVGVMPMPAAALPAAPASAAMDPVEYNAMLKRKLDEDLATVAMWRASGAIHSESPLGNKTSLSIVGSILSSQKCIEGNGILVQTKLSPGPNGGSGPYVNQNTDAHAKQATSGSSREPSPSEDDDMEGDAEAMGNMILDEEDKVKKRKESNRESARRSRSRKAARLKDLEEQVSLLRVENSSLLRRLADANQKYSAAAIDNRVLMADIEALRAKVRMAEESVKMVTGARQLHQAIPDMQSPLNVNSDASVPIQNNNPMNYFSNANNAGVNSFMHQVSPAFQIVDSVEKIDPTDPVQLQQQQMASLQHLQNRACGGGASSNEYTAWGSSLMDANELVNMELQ
How it was run: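 Transcription factors were each fused at the N-terminus to a polyhistidine tag plus DsRed and expressed in E. coli BL21-CodonPlus before Ni–NTA purification. Binding to a double-stranded custom Agilent array was carried out with 200 nM protein at 25 °C for 1 h in PBS, 2% BSA, salmon testes DNA and 50 µM zinc acetate. The binding signal is per-feature fluorescence intensity, in arbitrary units, on an Axon 4000B scanner.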

Row | Sequence | binding signal
1 | GCGTCATTCCGTTGGGCCCACCTGTCAGCAACGTAATTAGCGGAGTCACCTAGTGCAG | 3590 fluorescence intensity (a.u.)
2 | CACTACTGCAACATTATTTTGTCATATGTGGCAAGCTAAGCGGAGTCACCTAGTGCAG | 4400 fluorescence intensity (a.u.)
3 | GCTGTGGCTGCGCCTTGTGAACAATACTTGAGCAATAAAGCGGAGTCACCTAGTGCAG | 10100 fluorescence intensity (a.u.)
4 | GCTAACCTCGGTATACCGGTATTGCACTCCTACCCCGCGACGGAGTCACCTAGTGCAG | 17100 fluorescence intensity (a.u.)
5 | CCCAAAGACCCACGCACGATTCGCCACGTCGACGGTGACCCGGAGTCACCTAGTGCAG | 13600 fluorescence intensity (a.u.)
6 | TCTTTGTCTCATTATCTGCAACGTGCCCACCCACCAGTCCCGGAGTCACCTAGTGCAG | 3250 fluorescence intensity (a.u.)
7 | CACCACTAATCCATTCCAAATTTCCAATACAATGAACACTCGGAGTCACCTAGTGCAG | 8160 fluorescence intensity (a.u.)
8 | ACCGCAAAGTTGACAGCAACGCACATGCGCCCGCGCCATACGGAGTCACCTAGTGCAG | 3240 fluorescence intensity (a.u.)
9 | ACTGTACGGTGTCAGAGAAAGAGGGCGTCAGTGCGTCACACGGAGTCACCTAGTGCAG | 3320 fluorescence intensity (a.u.)
10 | TGCCCTTACGAGTCACTTGTTGGAGACAGTCTTATAGCATCGGAGTCACCTAGTGCAG | 3850 fluorescence intensity (a.u.)
11 | CACCCTGACCCACATGTCATTGACTCATGTGGGTCCGACACGGAGTCACCTAGTGCAG | 3500 fluorescence intensity (a.u.)
12 | TGCTAACCCTGTTCCAGCTCAGCTCCATTGATGAACTACTCGGAGTCACCTAGTGCAG | 4490 fluorescence intensity (a.u.)
13 | CGTCGTGCTCGTCGACGTCGTGCACTCCGTCGCCATCGTGCGGAGTCACCTAGTGCAG | 3220 fluorescence intensity (a.u.)
14 | TGCTGGCAAGTCACGCACAAGGGGAACACATTAGTTGTCACGGAGTCACCTAGTGCAG | 4120 fluorescence intensity (a.u.)
15 | TAGCTGCCACCGCACGCGTAGGTCGTCGCCGCCGCTGCACCGGAGTCACCTAGTGCAG | 4010 fluorescence intensity (a.u.)
16 | GCCCTACTGCCCTTGACACGTCGTCCATCCCATCGAACCGCGGAGTCACCTAGTGCAG | 10400 fluorescence intensity (a.u.)
17 | CCCCTTATCCACGAACCCCGACCGGCAGAGAGCGCAGACGCGGAGTCACCTAGTGCAG | 37200 fluorescence intensity (a.u.)
18 | ATCCGAAAACACCTTAGGTCTTGTTCGGTTTAGAGAGTATCGGAGTCACCTAGTGCAG | 38000 fluorescence intensity (a.u.)
19 | GCGTAGAGTGTCCACATATCAAGGACTTCTAGTTTTACTTCGGAGTCACCTAGTGCAG | 3260 fluorescence intensity (a.u.)
20 | GTCGGGCCGGCGCGGCGGGCCTGGTGGCAGCGCGCGACGTCGGAGTCACCTAGTGCAG | 3800 fluorescence intensity (a.u.)
21 | ACTGACTAGGATATACTACGTCAGTCAGAACAACCATCCACGGAGTCACCTAGTGCAG | 4670 fluorescence intensity (a.u.)

Given as tab-separated lines: entries from further up.
Row	Sequence	binding signal
3	GCTGTGGCTGCGCCTTGTGAACAATACTTGAGCAATAAAGCGGAGTCACCTAGTGCAG	10100 fluorescence intensity (a.u.)
7	CACCACTAATCCATTCCAAATTTCCAATACAATGAACACTCGGAGTCACCTAGTGCAG	8160 fluorescence intensity (a.u.)

(further entries)

Row | Sequence | binding signal
22 | ACGCGTCGCGTCGCGTGCGTGGGAGGGCAATCTCGTCCGTCGGAGTCACCTAGTGCAG | 3490 fluorescence intensity (a.u.)
23 | GCCCACTTGCTGACAACGCAGTTAGTTCGCCGAAGCCAACCGGAGTCACCTAGTGCAG | 8250 fluorescence intensity (a.u.)
24 | TTTGGTACTCCGATCCCGTTCATCATTGCGTCAGGGCTTACGGAGTCACCTAGTGCAG | 4920 fluorescence intensity (a.u.)
25 | GCTCTTGAGAATGTTGCTGAGTTGTCAGCTCTCTCCACCCCGGAGTCACCTAGTGCAG | 15700 fluorescence intensity (a.u.)
26 | GTGCAACCGTGCAAGCTTTGTTTATTTGACAGCACAACTCCGGAGTCACCTAGTGCAG | 3560 fluorescence intensity (a.u.)
27 | AAATGGCAACGTGCTAATATAACTTCCTCCCCTTCTTACCCGGAGTCACCTAGTGCAG | 3200 fluorescence intensity (a.u.)
28 | CATATATAGTCTTTGTCATGTTATTCCCAAGACTTACTTCCGGAGTCACCTAGTGCAG | 3570 fluorescence intensity (a.u.)
29 | AGCCCAATTTCACTTGCGGATTTGTGTGACAGTGTGACACCGGAGTCACCTAGTGCAG | 4650 fluorescence intensity (a.u.)
30 | TTGTATTGCTGATACATGTTGTAATAGCCGAGTCTCCTACCGGAGTCACCTAGTGCAG | 3480 fluorescence intensity (a.u.)
31 | AGCCCTCACCCGAAGAACACGGTACACGTGGCACCTAACCCGGAGTCACCTAGTGCAG | 15900 fluorescence intensity (a.u.)
32 | TATTGATTGTTACAACATGTTTGGAATTAGCTGAACTGAGCGGAGTCACCTAGTGCAG | 3330 fluorescence intensity (a.u.)
33 | GGCGTAAAAGAAAGAGGAGAAATTCTCCCGTCGTCTCCTTCGGAGTCACCTAGTGCAG | 24700 fluorescence intensity (a.u.)
34 | CGCGAGACAGTCAGCACCAATCGCTCACCTTGCTCGATGCCGGAGTCACCTAGTGCAG | 3500 fluorescence intensity (a.u.)
35 | CACTCCTGCTGCCGTCCAGTTGCAATTGCGTTTTCTCCTTCGGAGTCACCTAGTGCAG | 3220 fluorescence intensity (a.u.)
36 | ACTCGACCAGCCCCGCCAGCTTGAGCTCGCTCACTTCTGCCGGAGTCACCTAGTGCAG | 4640 fluorescence intensity (a.u.)
37 | AAATTCTTACTAACACTGATGTGTCATGCTATGAGTGCATCGGAGTCACCTAGTGCAG | 4940 fluorescence intensity (a.u.)
38 | ATCTTAATTGTCAACGCTGTTTGTGCAATAATCTTCAGCTCGGAGTCACCTAGTGCAG | 3140 fluorescence intensity (a.u.)
39 | TTCCTTGCCGTTTAACAGCACACCAAGGTTAGTACTAGCACGGAGTCACCTAGTGCAG | 3920 fluorescence intensity (a.u.)
40 | CTCGCTCTGTTGAGTCTTTATCGCACGTACACATGTCTGTCGGAGTCACCTAGTGCAG | 3320 fluorescence intensity (a.u.)
41 | TACCTATCGGTGAAAATATGTCAGGGACATGGTGGTATACCGGAGTCACCTAGTGCAG | 3210 fluorescence intensity (a.u.)
42 | CTGTATTTTGATCATTTTGATTCACACAATAACACCAGCGCGGAGTCACCTAGTGCAG | 3220 fluorescence intensity (a.u.)
